# Reference: article PMC10670996
# By UniProt entry, the sequences of proteins in these tests, tags left out. Where a name states a change or a piece, a line headed by the entry shows the natural chain unless it says otherwise.
# UniProt P0DMB2: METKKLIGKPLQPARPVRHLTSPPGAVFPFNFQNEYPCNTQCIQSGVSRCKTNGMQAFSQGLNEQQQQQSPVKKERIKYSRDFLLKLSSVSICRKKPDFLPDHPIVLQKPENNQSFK
# UniProt P06730: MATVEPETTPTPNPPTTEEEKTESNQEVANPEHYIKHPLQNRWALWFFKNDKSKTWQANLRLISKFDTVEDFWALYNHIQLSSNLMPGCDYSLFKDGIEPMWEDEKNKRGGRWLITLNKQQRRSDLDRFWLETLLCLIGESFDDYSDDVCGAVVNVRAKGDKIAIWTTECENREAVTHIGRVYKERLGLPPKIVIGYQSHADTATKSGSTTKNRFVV
# These are yes or no findings as the source states them, for the method shown. For some of these results: In cells and extracts the contact can be indirect.
# Experiments:
# [1] = target: GST-C8ORF88(Δ6) (not stated (human or mouse cDNA cloned)) (UniProt P0DMB2); test: condition: 0.5 µg His-eIF4E with 2.5 µg GST protein in 50 µL; pull-down; GST pulldown: 2.5 µg GST protein with 0.5 µg His-eIF4E or His-eIF4E(W73A) in 50 µL Binding Buffer (20 mM Tris pH 7.5, 100 mM KCl, 10% glycerol, 0.1% NP-40), 1 h room temperature; Glutathione Sepharose 1 h on ice; eluted with 10 mM reduced glutathione; blots anti-GST and anti-His; both purified
# [2] = target: Flag-C8ORF88(Δ6) (HEK293T) (not stated (human or mouse cDNA cloned)) (UniProt P0DMB2); test: co-IP; lysates (NP40 lysis buffer) of transfected HEK293T, 24 h post-transfection; anti-FLAG M2 magnetic beads 1 h on ice, 5 washes; blots anti-DDDDK and anti-eIF4E
# His-eIF4E = His-eIF4E (UniProt P06730); test: condition: 0.5 µg GST protein with 2.5 µg His-eIF4E in 50 µL; pull-down; cap-pulldown on m7GTP agarose of recombinant His-eIF4E (2.5 µg) with GST protein (0.5 µg) in 50 µL LCB Buffer, 1 h RT, then resin, GTP washes, m7GTP elution; blots anti-GST and anti-His (Figure S2); both purified
# [3] = target: Endogenous eIF4E (human (endogenous in HEK293T)) (UniProt P06730); test: pull-down; m7GTP cap-affinity chromatography of lysates (NP40 lysis buffer) of transfected HEK293T; LCB washes, 500 µM GTP washes, eluted with 500 µM m7GTP; blots anti-DDDDK and anti-eIF4E
substance,measurement,setting,value
His-eIF4E (from UniProt P06730 1-217),binding,[1],no binding
Endogenous eIF4E (from UniProt P06730 1-217),binding,[2],no binding
GST-C8ORF88(Δ6) (from UniProt P0DMB2),binding,His-eIF4E,no binding
Flag-C8ORF88(Δ6) (HEK293T) (from UniProt P0DMB2),binding,[3],no binding
